Percent effect of library compounds

Chains of the proteins cited; added tags and fusions are not shown.
UniProt I6X8D2, whole entry: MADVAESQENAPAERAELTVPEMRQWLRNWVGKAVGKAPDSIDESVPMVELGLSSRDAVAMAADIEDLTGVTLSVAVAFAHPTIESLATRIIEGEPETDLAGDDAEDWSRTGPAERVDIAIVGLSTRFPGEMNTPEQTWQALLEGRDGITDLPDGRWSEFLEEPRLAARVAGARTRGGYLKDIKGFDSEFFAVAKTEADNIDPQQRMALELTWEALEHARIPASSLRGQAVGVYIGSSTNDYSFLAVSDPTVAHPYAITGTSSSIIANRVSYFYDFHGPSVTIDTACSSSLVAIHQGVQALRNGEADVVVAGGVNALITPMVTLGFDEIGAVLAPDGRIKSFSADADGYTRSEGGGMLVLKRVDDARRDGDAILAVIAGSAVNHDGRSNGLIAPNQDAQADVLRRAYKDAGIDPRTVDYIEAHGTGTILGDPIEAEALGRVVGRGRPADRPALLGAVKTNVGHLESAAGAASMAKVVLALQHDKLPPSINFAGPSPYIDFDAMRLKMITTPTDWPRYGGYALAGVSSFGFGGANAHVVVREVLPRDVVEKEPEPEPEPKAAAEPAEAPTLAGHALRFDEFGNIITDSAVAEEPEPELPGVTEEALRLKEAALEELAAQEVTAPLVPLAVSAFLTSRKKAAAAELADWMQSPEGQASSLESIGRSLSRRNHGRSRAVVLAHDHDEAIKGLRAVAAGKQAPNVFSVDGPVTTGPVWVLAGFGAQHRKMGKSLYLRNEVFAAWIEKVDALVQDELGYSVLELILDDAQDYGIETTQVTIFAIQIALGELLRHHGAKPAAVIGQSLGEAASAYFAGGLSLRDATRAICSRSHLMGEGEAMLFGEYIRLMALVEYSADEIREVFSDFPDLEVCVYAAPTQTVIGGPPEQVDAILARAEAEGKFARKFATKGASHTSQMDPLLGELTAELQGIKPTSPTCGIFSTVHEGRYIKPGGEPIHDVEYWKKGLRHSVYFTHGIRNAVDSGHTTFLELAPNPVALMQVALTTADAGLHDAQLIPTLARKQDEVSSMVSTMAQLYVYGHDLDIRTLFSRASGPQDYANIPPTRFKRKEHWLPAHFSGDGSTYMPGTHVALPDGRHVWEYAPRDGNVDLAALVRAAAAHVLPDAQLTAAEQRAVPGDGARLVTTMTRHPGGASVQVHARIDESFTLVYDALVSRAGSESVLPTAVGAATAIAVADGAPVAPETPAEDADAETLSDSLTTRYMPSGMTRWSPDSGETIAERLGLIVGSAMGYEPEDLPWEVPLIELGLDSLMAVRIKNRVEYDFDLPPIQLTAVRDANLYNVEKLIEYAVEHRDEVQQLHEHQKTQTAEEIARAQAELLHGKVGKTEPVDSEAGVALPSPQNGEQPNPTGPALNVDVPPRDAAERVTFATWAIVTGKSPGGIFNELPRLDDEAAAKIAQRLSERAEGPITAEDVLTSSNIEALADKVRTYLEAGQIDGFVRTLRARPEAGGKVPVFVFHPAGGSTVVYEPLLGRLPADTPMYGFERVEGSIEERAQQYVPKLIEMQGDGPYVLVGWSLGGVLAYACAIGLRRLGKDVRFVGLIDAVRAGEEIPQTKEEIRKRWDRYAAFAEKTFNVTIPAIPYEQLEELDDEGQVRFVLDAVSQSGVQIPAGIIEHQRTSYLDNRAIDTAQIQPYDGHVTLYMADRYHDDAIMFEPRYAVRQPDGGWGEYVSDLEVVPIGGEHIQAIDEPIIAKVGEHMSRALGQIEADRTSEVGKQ
UniProt P9WNZ1, whole entry: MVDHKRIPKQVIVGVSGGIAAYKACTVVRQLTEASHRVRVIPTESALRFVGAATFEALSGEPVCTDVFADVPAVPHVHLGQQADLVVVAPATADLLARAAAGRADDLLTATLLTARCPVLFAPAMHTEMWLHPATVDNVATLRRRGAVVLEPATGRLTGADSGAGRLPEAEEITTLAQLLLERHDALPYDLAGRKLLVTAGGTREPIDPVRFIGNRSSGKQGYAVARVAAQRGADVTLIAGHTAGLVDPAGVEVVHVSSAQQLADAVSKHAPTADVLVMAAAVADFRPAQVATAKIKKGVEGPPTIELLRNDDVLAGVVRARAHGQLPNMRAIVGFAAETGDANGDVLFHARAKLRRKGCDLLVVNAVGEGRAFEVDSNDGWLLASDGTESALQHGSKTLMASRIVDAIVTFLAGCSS
UniProt P9WPC5, whole entry: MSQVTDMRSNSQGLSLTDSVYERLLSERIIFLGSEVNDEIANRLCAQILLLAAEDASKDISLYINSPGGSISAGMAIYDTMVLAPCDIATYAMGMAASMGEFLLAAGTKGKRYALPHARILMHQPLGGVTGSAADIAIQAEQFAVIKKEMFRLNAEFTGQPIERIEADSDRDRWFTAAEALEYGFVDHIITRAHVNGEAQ
UniProt P9WPC3, whole entry partner: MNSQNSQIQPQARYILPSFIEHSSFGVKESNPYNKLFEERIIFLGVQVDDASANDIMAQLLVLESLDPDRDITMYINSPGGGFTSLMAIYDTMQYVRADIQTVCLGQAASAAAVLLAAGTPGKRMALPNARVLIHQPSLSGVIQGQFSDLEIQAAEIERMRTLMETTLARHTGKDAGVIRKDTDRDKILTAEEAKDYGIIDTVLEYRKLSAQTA
UniProt P9WFT3, whole entry: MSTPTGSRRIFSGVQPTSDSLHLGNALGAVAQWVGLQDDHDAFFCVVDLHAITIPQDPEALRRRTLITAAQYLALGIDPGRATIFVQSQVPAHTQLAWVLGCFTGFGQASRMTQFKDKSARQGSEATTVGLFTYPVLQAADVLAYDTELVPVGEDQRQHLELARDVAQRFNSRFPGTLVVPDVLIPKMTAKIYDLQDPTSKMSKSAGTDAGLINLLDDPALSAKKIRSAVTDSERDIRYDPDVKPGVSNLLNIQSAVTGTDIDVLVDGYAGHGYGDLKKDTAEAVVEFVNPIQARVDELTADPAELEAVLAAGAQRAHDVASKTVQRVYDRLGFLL

Source: ChEMBL document CHEMBL3988442, “University of Dundee, Small-Polar-MMV Screening Library” (2021).

Pks13 thioesterase: 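Polyketide synthase Pks13, Mycobacterium tuberculosis (UniProt I6X8D2). Enzyme assay of the thioesterase domain of polyketide synthase 13; the read-out is not stated. Compounds at 30 µM. Higher reads as stronger inhibition (inferred from which compounds were picked for retests). Size under these conditions: about 67,000 compounds, about 300 of them at 50% or above in at least one test.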
Toxoplasma: 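Assay of Toxoplasma gondii numbers, read through their beta-galactosidase reporter with a colour substrate. Concentration: 10 µM. Higher reads as fewer parasites (inferred from which compounds were picked for retests). Of about 67,000 compounds tested this way, about 260 (0.38%) reached 50% or more in at least one test.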
CoaBC: 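Coenzyme A biosynthesis protein CoaBC, Mycobacterium tuberculosis (UniProt P9WNZ1). Enzyme assay of CoaBC with a phosphate dye (Biomol Green) read at 650 nm. Tested at 30 µM. Direction is inferred from only a few compounds that gave an IC50; most scored high, so higher reads as stronger inhibition. Most strong results did not repeat in a second test. Size under these conditions: about 67,000 compounds, about 40 of them at 50% or above in at least one test.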
ClpP1P2: 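Protease assay of ClpP1P2, read by the AMC dye that it sets free. Target: ClpP1P2, Mycobacterium tuberculosis (UniProt P9WPC5 and UniProt P9WPC3). Tested at 50 µM. Higher reads as stronger inhibition, judged from the few compounds that gave an IC50. Most other retested compounds had strongly negative values. About 69,000 compounds were tested under these conditions; 0.015% (about 10) showed 50% or more at least once.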
Leishmania in macrophages: 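Cell assay of Leishmania donovani living inside macrophages; the read-out is not stated. Concentration: 30 µM. Higher reads as stronger inhibition (inferred: compounds with an IC50 in retests scored well above the rest). About 69,000 compounds were tested under these conditions; 1.5% (about 1,000) showed 50% or more at least once.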
MtTrpRS: 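Enzyme assay of tryptophanyl-tRNA synthetase; the read-out is not stated. Target: Tryptophan-tRNA ligase, Mycobacterium tuberculosis (UniProt P9WFT3). Concentration: 10 µM. Direction is not recorded; retested compounds ran higher, which suggests that high means inhibition. Size under these conditions: about 65,000 compounds, about 64 of them at 50% or above in at least one test.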

The filed quantity is “Percent Effect” (%).
The record does not define 0% and 100%; most values in the screen are far below 50% and negative numbers occur (in some assays of this library far below -100).
This is an unselected part of the compounds tested.

Result for N#Cc1cccc(C(=O)N2CCN(c3ncccn3)CC2)c1 was Pks13 thioesterase: -8.825%; Toxoplasma: 12.32%; CoaBC: -2.999%; ClpP1P2: 7.431%; Leishmania in macrophages: -6.444%; MtTrpRS: 4.302%. CCc1ccc(C2NCCc3cc4c(cc32)OCCO4)cc1 (stereo not drawn) read Pks13 thioesterase: -17.5%; Toxoplasma: 24.44%; CoaBC: -0.8589%; ClpP1P2: 5.261%; Leishmania in macrophages: 24.28%. With Cc1cnc(CN(C)C2CCN(Cc3nc4c(F)cccc4[nH]3)C2)o1 (stereo not drawn) the screen gave Pks13 thioesterase: -54.84%; Toxoplasma: -6.328%; CoaBC: 5.583%; ClpP1P2: 22.08%; Leishmania in macrophages: -6.105%; MtTrpRS: -1.44%. Result for Cc1noc(-c2ccc(N3CCCC(C(=O)c4nccn4C)C3)nc2)n1 (stereo not drawn) was Pks13 thioesterase: -12.06%; Toxoplasma: -13.65%; CoaBC: 1.071%; ClpP1P2: 8.344%; Leishmania in macrophages: 0.1544%; MtTrpRS: -2.462%. With CCN1CCCC(c2c(-c3ccccc3)ncn2Cc2csc(N)n2)C1 (stereo not drawn) the screen gave Pks13 thioesterase: -8.922%; Toxoplasma: 9.459%; CoaBC: -8.554%; ClpP1P2: 6.506%; Leishmania in macrophages: 15.27%; MtTrpRS: 3.667%. With Cc1cc(C)n(CCN2CCC(N(C)Cc3nnc(C)n3C)C2)n1 (stereo not drawn) the screen gave Pks13 thioesterase: -6.091%; Toxoplasma: -1.863%; CoaBC: 2.684%; ClpP1P2: -22.84%; Leishmania in macrophages: 21.98%; MtTrpRS: -0.4989%.

Cc1nnc(CNC(=O)C2CSCCC(=O)N2)o1 (stereo not drawn) gave Pks13 thioesterase: 33.98%; Toxoplasma: -17.78%; CoaBC: -0.1272%; ClpP1P2: -9.238%; Leishmania in macrophages: -11.23%; MtTrpRS: 0.5939%. Cc1nc(N2CCC(C(O)c3nccn3C)CC2)c2sccc2n1 (stereo not drawn) gave Pks13 thioesterase: -14.48%; Toxoplasma: -13.22%; CoaBC: -4.467%; ClpP1P2: 5.952%; Leishmania in macrophages: 9.469%; MtTrpRS: -0.3173%. CCN(CC)c1nc(O)cc(C(C)n2ncc3ccccc3c2=O)n1 (stereo not drawn) gave Pks13 thioesterase: -59.8%; Toxoplasma: -17.48%; CoaBC: -2.153%; ClpP1P2: -17.84%; Leishmania in macrophages: 4.954%; MtTrpRS: 1.953%. Result for CC(C)CCc1nc(CNCC2CCCN2c2cccnn2)cs1 (stereo not drawn) was Pks13 thioesterase: -25.45%; Toxoplasma: 12.35%; CoaBC: 5.957%; ClpP1P2: -17.76%; Leishmania in macrophages: 20.13%; MtTrpRS: 5.461%. Clc1cccc(-c2cccc(N3CCC(NC4CCOCC4)CC3)c2)c1 read Pks13 thioesterase: -18.81%; Toxoplasma: 94.46%; CoaBC: -10.08%; ClpP1P2: -15.12%; Leishmania in macrophages: 97.72%; MtTrpRS: 2.203%. With Cn1cnc(S(=O)(=O)N2CCCc3cccc(F)c32)c1Cl the screen gave Pks13 thioesterase: -1.969%; Toxoplasma: 15.47%; CoaBC: 7.025%; ClpP1P2: 9.844%; Leishmania in macrophages: 10.62%; MtTrpRS: 3.114%.

For [H][C@]12CCC[C@@]1(COCC1CC1)CN(C(=O)Cc1ccco1)C2 the result was Toxoplasma: 6.375%; Leishmania in macrophages: 11.94%. For CN(CC1CCCCC1)C(=O)c1cn(C)nc1-c1cccnc1 the result was Toxoplasma: -1.561%; CoaBC: 0.8065%; ClpP1P2: 11.1%; Leishmania in macrophages: 10.55%; MtTrpRS: -3.995%. Result for CC(C)C(=O)NCC(=O)N1CCC2(CC1)c1ccccc1[C@@H](N)[C@@H]2O was Pks13 thioesterase: -10.55%; Toxoplasma: 16.76%; CoaBC: 8.518%; ClpP1P2: 9.727%; Leishmania in macrophages: -27.19%; MtTrpRS: 4.063%. Result for Fc1cc(Oc2ccc(C(F)(F)F)cn2)cc(F)c1CN1CCCC1 was Pks13 thioesterase: -11.22%; Toxoplasma: 7.669%; CoaBC: 19.32%; ClpP1P2: -11.78%; Leishmania in macrophages: -3.532%; MtTrpRS: 2.832%. Result for Cc1noc(C)c1C(=O)N1CCCN(Cc2nccn2C(C)C)CC1 was Pks13 thioesterase: -12.89%; Toxoplasma: 3.286%; CoaBC: 2.895%; ClpP1P2: -9.709%; Leishmania in macrophages: 12.94%; MtTrpRS: -2.674%. With CS(=O)(=O)N1C[C@@H](O)[C@H](N2CCN(c3ccccc3)CC2)C1 the screen gave Toxoplasma: 1.338%; CoaBC: -2.331%; ClpP1P2: 6.982%; Leishmania in macrophages: -37.2%; MtTrpRS: 4.486%.

For O=C(c1ccncc1)N1CCc2[nH]nc(Nc3ccccc3)c2C1 the result was Pks13 thioesterase: -34.86%; Toxoplasma: 16.62%; CoaBC: -5.919%; ClpP1P2: 1.973%; Leishmania in macrophages: 25.95%; MtTrpRS: 8.443%. For COCCN1C[C@H]2CCN(C(=O)Nc3ccccc3C)CC[C@H]2S1(=O)=O the result was Pks13 thioesterase: -24.72%; CoaBC: 3.817%; ClpP1P2: -8.772%; MtTrpRS: -4.446%. CC(C)c1nc(C2CCCN(C(=O)c3nccn4ccnc34)C2)no1 (stereo not drawn) gave Toxoplasma: 31.29%; CoaBC: -1.34%; ClpP1P2: -7.081%; Leishmania in macrophages: 17.16%; MtTrpRS: 0.2839%. Result for CCc1cc(N[C@@H]2C[C@H]3CC[C@@H]2C3)n2nccc2n1 was Pks13 thioesterase: -27.27%; CoaBC: 12.31%; ClpP1P2: -3.534%; MtTrpRS: 1.679%. CCOCC1CN(c2ccc(C)nn2)Cc2nn(CC)cc21.O=C(O)C(F)(F)F.O=C(O)C(F)(F)F (stereo not drawn) gave Toxoplasma: -10.47%; Leishmania in macrophages: 14.42%. CN(C)CCOCc1nnc2n1CCN(Cc1ccc(F)cc1)CC2 gave CoaBC: -4.562%; ClpP1P2: -8.698%; MtTrpRS: 19.24%.

The first 2 entries again:

* N#Cc1cccc(C(=O)N2CCN(c3ncccn3)CC2)c1 : Pks13 thioesterase: -8.825%; Toxoplasma: 12.32%; CoaBC: -2.999%; ClpP1P2: 7.431%; Leishmania in macrophages: -6.444%; MtTrpRS: 4.302%
* CCc1ccc(C2NCCc3cc4c(cc32)OCCO4)cc1 (stereo not drawn) : Pks13 thioesterase: -17.5%; Toxoplasma: 24.44%; CoaBC: -0.8589%; ClpP1P2: 5.261%; Leishmania in macrophages: 24.28%